# Measured data: PubChem BioAssay AID1159578 (Peter MacCallum Cancer Centre, 2015)
# Screen: 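Genome-wide hunt for genes controlling movement of lymphatic endothelial cells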 (primary screen)
# System: human lymphatic endothelial cells
# Reagent: siRNA pool against human genes, 40 nM
# Duration: 48 h after transfection
# Read-out: 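High-content imaging of dye-stained cells in a scratch assay measures filled wound area and nuclei per well; duplicate means given as ratio to mock and robust z-score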
# Scale: migration robust z-score: higher = faster migration into the scratch; migration relative to mock: higher = more scratch area covered than mock; nuclei per well: higher = more cells in the well
# Hit rule: 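Pools averaging fewer than 3300 nuclei are never called; remaining pools count as changed when migration robust z lies outside -2 to 2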
# Meaning of the calls: active = migration changed; inactive = no migration change, or too few cells
# The whole screen tested about 18,000 reagents; below is an unselected part. In the full data, about 1,030 (5.7%) got an active call. 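Inactive calls also include pools with fewer than 3300 nuclei, whose migration was not assessed.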 The raw values are shown without normalisation. Entries without a mark were called inactive. The numbers tell different reagents against one gene apart.
gene,reagent,migration robust z-score,migration class with cell-count check,migration relative to mock,"nuclei per well, duplicate mean"
SLC29A4,1,-0.72,migration z between -2 and 2; enough cells,0.7,3888
CASP3,1,0.96,migration z between -2 and 2; enough cells,0.99,5798
HOXA6,1,-0.6,migration z between -2 and 2; enough cells,0.73,4590
UCHL3,1,-0.93,migration z between -2 and 2; enough cells,0.62,4588
DDA1,1,-1.09,migration z between -2 and 2; enough cells,0.6,5593
ADGRE4P,1,1.14,migration z between -2 and 2; enough cells,1.02,6084
CCDC80,1,0.12,migration z between -2 and 2; enough cells,0.92,5679
PAWR,1,-0.13,migration z between -2 and 2; enough cells,0.78,5706
SLC2A5,1,-1.04,migration z between -2 and 2; enough cells,0.61,5092
TAS2R60,1,0.86,migration z between -2 and 2; enough cells,1.11,7216
TXLNG,1,0.52,migration z between -2 and 2; enough cells,0.9,5859
LAMB2,1,0.57,migration z between -2 and 2; enough cells,0.92,4931
ARHGAP45,1,-0.36,migration z between -2 and 2; enough cells,0.74,4192
ZNF592,1,-1.25,migration z between -2 and 2; enough cells,0.57,4748
SCUBE2,1,-0.62,migration z between -2 and 2; enough cells,0.72,6424
RHBDL2,1,-0.28,migration z between -2 and 2; enough cells,0.75,5539
XKRY,1,0.25,migration z between -2 and 2; enough cells,0.96,4744
MCHR2,1,-0.18,migration z between -2 and 2; enough cells,0.77,5118
ADH1C,1,-2.13 (active),migration z below -2; enough cells,0.4,3420
ZNF549,1,-1.54,migration z between -2 and 2; enough cells,0.48,4865
SDHAF4,1,-1.15,migration z between -2 and 2; enough cells,0.58,6196
JOSD2,1,-0.12,migration z between -2 and 2; enough cells,0.86,5976
LMAN2,1,-1.97,migration z between -2 and 2; enough cells,0.38,6148
RASGEF1C,1,-1.2,migration z between -2 and 2; enough cells,0.57,4713
SZT2,1,0.09,migration z between -2 and 2; enough cells,0.9,5542
SZT2,2,-1.34,migration z between -2 and 2; enough cells,0.54,5969
SPACA9,1,1.21,migration z between -2 and 2; enough cells,1.2,5702
MAMDC4,1,-2.22 (active),migration z below -2; enough cells,0.32,5127
IL34,1,0.25,migration z between -2 and 2; enough cells,0.95,6518
OTULIN,1,0.83,migration z between -2 and 2; enough cells,1.1,5808
H2AC11,1,-1.44,migration z between -2 and 2; enough cells,0.51,5620
ANKRD45,1,0.1,migration z between -2 and 2; enough cells,0.92,5292
ZNF589,1,-0.12,migration z between -2 and 2; enough cells,0.85,5564

7 entries from above, ordered by “migration robust z-score”, lowest first:
gene,reagent,migration robust z-score,migration class with cell-count check,migration relative to mock,"nuclei per well, duplicate mean"
ZNF592,1,-1.25,migration z between -2 and 2; enough cells,0.57,4748
SLC2A5,1,-1.04,migration z between -2 and 2; enough cells,0.61,5092
ARHGAP45,1,-0.36,migration z between -2 and 2; enough cells,0.74,4192
PAWR,1,-0.13,migration z between -2 and 2; enough cells,0.78,5706
TXLNG,1,0.52,migration z between -2 and 2; enough cells,0.9,5859
LAMB2,1,0.57,migration z between -2 and 2; enough cells,0.92,4931
TAS2R60,1,0.86,migration z between -2 and 2; enough cells,1.11,7216

Further results follow.
gene,reagent,migration robust z-score,migration class with cell-count check,migration relative to mock,"nuclei per well, duplicate mean"
FAM221A,1,-0.59,migration z between -2 and 2; enough cells,0.74,5992
CEP250,1,-0.75,migration z between -2 and 2; enough cells,0.69,4468
MSLN,1,-0.24,migration z between -2 and 2; enough cells,0.82,4817
COL4A1,1,-0.48,migration z between -2 and 2; enough cells,0.76,5770
ZNF28,1,1.07,migration z between -2 and 2; enough cells,1.17,5930
HMOX1,1,0.18,migration z between -2 and 2; enough cells,0.84,6366
PPL,1,-0.36,migration z between -2 and 2; enough cells,0.74,5614
ABCA10,1,-0.72,migration z between -2 and 2; enough cells,0.7,6890
ST13,1,0.13,migration z between -2 and 2; enough cells,0.83,5634
LRSAM1,1,-3.12 (active),migration z below -2; enough cells,0.2,4049
ODF1,1,-0.52,migration z between -2 and 2; enough cells,0.75,3558
IL17RB,1,-1.58,migration z between -2 and 2; enough cells,0.5,4426
ATG16L2,1,-0.48,migration z between -2 and 2; enough cells,0.76,5658
CHRNA6,1,0.52,migration z between -2 and 2; enough cells,0.9,5434
FBXO15,1,-1.2,migration z between -2 and 2; enough cells,0.57,5686
SUCLG1,1,0.13,migration z between -2 and 2; enough cells,0.83,6394
XPO7,1,0.5,migration z between -2 and 2; enough cells,1.02,5276
HYCC2,1,-0.92,migration z between -2 and 2; enough cells,0.64,4930
CYP2R1,1,-2,migration z between -2 and 2; enough cells,0.36,5936
ADCK2,1,-2.12 (active),migration z below -2; enough cells,0.4,4977
NOS2,1,-1.35,migration z between -2 and 2; enough cells,0.54,5294
FOXJ2,1,-0.7,migration z between -2 and 2; enough cells,0.67,3760
MRPS11,1,-0.78,migration z between -2 and 2; enough cells,0.69,3460
CYP2S1,1,-1.61,migration z between -2 and 2; enough cells,0.5,5121
